Percent effect of library compounds

Mtb cholesterol medium: 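Growth of Mycobacterium tuberculosis over 4 days (cholesterol / DPPC medium with tyloxapol); the read-out is not stated. Tested at 50 µM. The record gives no direction; compounds that gave an IC50 in retests scored well above the rest, so higher reads as more growth inhibition. Of about 69,000 compounds tested this way, about 370 (0.54%) reached 50% or more in at least one test.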
Mtb glucose medium: 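Growth of Mycobacterium tuberculosis over 3 days (7H9 medium with glucose and tyloxapol); the read-out is not stated. Tested at 50 µM. The record gives no direction; compounds that gave an IC50 in retests scored well above the rest, so higher reads as more growth inhibition. Of about 69,000 compounds tested this way, about 760 (1.1%) reached 50% or more in at least one test.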

Results are given as percent effect.
The record does not define 0% and 100%; most values in the screen are far below 50% and negative numbers occur (in some assays of this library far below -100).
Compounds were drawn at random from those tested, without regard to their results.
Two or more numbers in one place are separate tests of the same structure; such repeats can differ widely.

| # | Compound | Mtb cholesterol medium | Mtb glucose medium |
|---|---|---|---|
| 1 | `COc1ccccc1Nc1nc2c(C)nn(C)c2c(=O)n1C` | -19.93 | -33.9 |
| 2 | `NC(=O)CN1CCOCC(Cc2ccccc2)C1` (stereo not drawn) | -5.616 | -4.841 |
| 3 | `N#CC(NC(=O)CNC(=O)c1ccccc1)c1ccsc1` (stereo not drawn) | 1.219 | -2.267 |
| 4 | `Cc1c(C(=O)NCCC(C)C)nnn1-c1cccc2c1CCN(C)C2` | 1.088 & 5.534 | 12.55 |
| 5 | `CC(C)(C)CC(=O)NCCCn1cncn1` | -12.31 | -11.44 |
| 6 | `CS(=O)(=O)NCCn1ccc(-c2cccs2)n1` | 19.26 | 20.12 |
| 7 | `Cc1ccc(C2COCCN2C(=O)c2ccc(C)s2)o1` (stereo not drawn) | -16.14 & 3.132 | 27.51 |
| 8 | `Cc1nnc(N2CCN(C(=O)NC3CC3)CC2)c(C(N)=O)c1C` | 12.65 | -3.78 |
| 9 | `Cc1ccc(Cn2cc(Br)c(NS(C)(=O)=O)n2)cc1` | 6.383 | -27.71 |
| 10 | `COC(=O)c1ccc(N2CCN(C(=O)c3cc(C)on3)C(C)C2)cc1` (stereo not drawn) | 13.74 | 11.8 |
| 11 | `Cc1cc(C(=O)N2CCCC(c3noc(C)n3)C2)[nH]n1` (stereo not drawn) | 10.4 | 24.48 |
| 12 | `Cc1ccc(C(=O)Nc2cn[nH]c2)cn1` | -31.4 | -22.09 |
| 13 | `COc1ccc(-c2cc(CN)nc3ccnn23)cc1.Cl` | -14.3 | 12.13 |
| 14 | `CCn1nnc2c1C(COC)CN(C(=O)Cc1cccs1)C2` (stereo not drawn) | -1.826 & -13.01 | -33.37 |
| 15 | `O=C(O)C(F)(F)F.O=C(O)C(F)(F)F.[H][C@@]12CCCO[C@]1([H])[C@H](N(C)Cc1ccco1)CN(Cc1ccc(C)o1)C2` | 7.02 | 3.366 |
| 16 | `O=C(NCCC1=CCCCC1)c1n[nH]c2c1CCCC2` | 8.804 | 40.97 |
| 17 | `C[C@@H]1CN(C2(C(=O)N3CCOCC3)Cc3ccccc3C2)C[C@H](C)O1` | -7.459 | -1.46 & 18.32 |
| 18 | `COc1ccccc1CNc1ccc2nncn2n1` | -24.63 | 11.52 & 7.272 |
| 19 | `COCc1nc(CNC2CCCc3c2cnn3C(C)(C)C)cs1` (stereo not drawn) | 6.446 | 30.2 |
| 20 | `CC(=O)N1CCCCC1c1nc2c(c(NC3CCCC3)n1)CN(C)CC2` (stereo not drawn) | 32.85 | -12.39 |
| 21 | `CC(=O)N1CCc2ccccc2C1CC(=O)NCc1nnc(C)o1` (stereo not drawn) | -29.54 | -66.71 |
| 22 | `CN1CCN(C(=O)CCn2nnc3ccccc32)CC(C(N)=O)C1` (stereo not drawn) | -3.478 & 5.572 | -12.8 |
| 23 | `COc1ccc(CC(=O)N2CCCC2Cn2cc(C)cn2)c(OC)c1` (stereo not drawn) | 3.181 | 26.35 |
| 24 | `[H][C@@]12CN(Cc3cccnc3)CCO[C@]1([H])CN(Cc1scnc1C)C2` | -5.757 | 18.06 & -7.769 |
| 25 | `NC(=O)C(NC1CCN(Cc2ccc(F)cc2)CC1)c1ccccc1` (stereo not drawn) | 2.367 | 12.71 & -0.2833 |
| 26 | `Cc1ccccc1N1CCCN(C(=O)CCc2cccnc2)CC1` | -2.789 | -3.166 |
| 27 | `Cc1cc(C2CCC2)nc(N2CCN(Cc3nccn3C)CC2)n1` | -21.39 | 18.61 |
| 28 | `CN(C)CC1(O)CCN(S(=O)(=O)c2cccc(F)c2)C1` (stereo not drawn) | 14.89 | 8.162 |
| 29 | `O=C(NC1CC(=O)N(C2Cc3ccccc3C2)C1)c1cc[n+]([O-])cc1` (stereo not drawn) | -2.446 & -15.29 | -4.294 |
| 30 | `COc1ccc(CCNC(=O)Cn2ncc3c2c(C)nn3C)cc1` | 5.34 | 9.764 |
| 31 | `[H][C@]1([C@H](O)c2ccc(NC(=O)c3ccco3)cc2)COCC(=O)N1` | 1.016 | -6.985 & 0.9691 |
| 32 | `CC(NS(=O)(=O)CC1(C#N)CCCC1)c1cccc(-n2cccn2)c1` (stereo not drawn) | -0.9429 | -1.562 & -2.486 |
| 33 | `OCc1csc(N2C[C@@H](CN3CCCCCC3)[C@@H](CO)C2)n1` | 0.8019 | 5.506 |
| 34 | `C[C@@H]1CN(Cc2ccccn2)C[C@]12CCN(Cc1cccnc1)C2=O.O=C(O)C(F)(F)F.O=C(O)C(F)(F)F.O=C(O)C(F)(F)F` | -6.837 & -5.494 | -14.85 |
| 35 | `[H][C@@]12C[C@@H](c3nc(C)no3)CN(S(=O)(=O)c3ccccc3)[C@]1([H])CCO2` | 14.76 | 13.7 |
| 36 | `Cc1ccc(C(=O)OC(C)Cn2cccn2)c(=O)[nH]1` (stereo not drawn) | -2.259 | 14.1 |
| 37 | `Cc1nc2c(c(N3CC=CC3)n1)CCN(Cc1ccoc1)CC2` | -39.11 | -19.58 |
| 38 | `CN(C)c1ncc(NC(=O)N2CCC(CN3CCCC3)C2)cn1` (stereo not drawn) | 8.963 & -8.006 | 3.817 |
| 39 | `CC(CC#N)N(C)Cc1ccccc1F` (stereo not drawn) | -7.143 & -1.281 | 3.6 & 0.3821 |
| 40 | `CCn1ccc(C(=O)N2CCCC2c2nnc(-c3scnc3C)o2)n1` (stereo not drawn) | 11.08 & 7.416 | -24.26 |
| 41 | `O=C(c1cc(Cl)c2c(c1)OCO2)N1CCN(c2nccs2)CC1` | -9.161 | 5.235 & 0.8393 |
| 42 | `O=C(CC1NC(N2CCc3ccccc3C2)=NC1=O)Nc1ccccc1` (stereo not drawn) | -11.05 | -12.56 & 1.34 |
| 43 | `[H][C@@]12CCN(C(=O)c3ccccn3)C[C@@]1([H])O[C@@H](C)C2` | -29.64 | -3.064 |
| 44 | `Cc1c(C(=O)N(C)C)cccc1N(C)S(C)(=O)=O` | 9.04 | -4.11 |
| 45 | `CCSCC(C)NCc1cc(-c2ccco2)on1` (stereo not drawn) | 6.814 | -5.329 |
| 46 | `O=C(CCc1ccccc1)N1CCn2cc(Cn3cncn3)nc2C1` | 6.244 | 4.444 |
| 47 | `Cc1ccc(C(=O)Nc2ccc(OC3CCN(C)CC3)cc2)c(C)c1` | 0.5941 & 18 | 23.22 |
| 48 | `COc1ccc(F)cc1S(=O)(=O)N1CCC(OC)CC1` | 1.261 | 0.693 & 7.147 |
| 49 | `Cc1ccccc1C(NC(=O)CNC(=O)c1ccoc1C)C(C)C` (stereo not drawn) | -0.55 | 3.141 |
| 50 | `COc1ccc(Cl)cc1NCc1nc2[nH]c(C)c(C)c(=O)n2n1` | -12.64 | -0.7109 |
| 51 | `CCCc1nnc(N2CCN(C3CCCC3)CC2)o1` | 33.63 | 29.76 & 38.69 |

Repeated from the top, 4 entries:

Compound	Mtb cholesterol medium	Mtb glucose medium
COc1ccccc1Nc1nc2c(C)nn(C)c2c(=O)n1C	-19.93	-33.9
NC(=O)CN1CCOCC(Cc2ccccc2)C1 (stereo not drawn)	-5.616	-4.841
N#CC(NC(=O)CNC(=O)c1ccccc1)c1ccsc1 (stereo not drawn)	1.219	-2.267
Cc1c(C(=O)NCCC(C)C)nnn1-c1cccc2c1CCN(C)C2	1.088 & 5.534	12.55

From ChEMBL document CHEMBL3988442, “University of Dundee, Small-Polar-MMV Screening Library” (2021).